Reference: PMC11957390

Molecular target: T1, 2×Myc-LSDV012 (Lumpy skin disease virus)
T1 sequence: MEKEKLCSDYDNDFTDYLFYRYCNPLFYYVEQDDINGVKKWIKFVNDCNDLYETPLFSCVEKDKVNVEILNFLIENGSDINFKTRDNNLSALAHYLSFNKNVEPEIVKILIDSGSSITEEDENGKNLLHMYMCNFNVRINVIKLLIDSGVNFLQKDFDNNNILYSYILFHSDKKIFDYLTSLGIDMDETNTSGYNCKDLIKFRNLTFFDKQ
Experiment: affinity purification with mass spectrometry

B1: bovine IFIT5 (endogenous, MDBK) (protein, UniProt F6QAR8 1-482)
chain: MSEIPKDCLKTILLELECHFTWNLLKEDIDLFDVEDTIGQQLEFLTTKSRLTLYNLLAYVKHLKGQNEDALKCLKQAEEIIRREHSDKEGVRSLVTWGNYAWVYYDMGQLKEAQKYIGKIGSVCKTLSSPSDYKLERPEIDCEKGWALLKFGGKYYQKAKAAFEKALEAEPDNPEFNIGYAITVYRLDDSDREGSIKSFSLGPLRKAVTLNPDNSYIKVFLALKLQDVHAEAEGEKYIEEILDQISAQPYVLRYAAKFYRRKNSWDKALELLKKALEVTPTSSFLHHQMGLCYRAQMIQIKKATRNRPKGKDKLKVDELITSAISHFKAAVERDSMFAFAYTDLANMYAEGGQYSNAEDIFQKALRLENITDDHKHQIHYHYGRFQEFHRKSENTAIHHYLEALKVKDRSSLRPKLTSALKKLATKRLGYNASDVQSLSALGFVYKLEGEKRQAAEYYERAQKIDPENAEFLTALCELRLSI
**Q.** Which binding does the source give for B1 here?
**A.** binds

Results are given in words; binding and its absence hold for the method and conditions named. Binding seen in cells or lysates may run through a third protein. These calls come from enrichment with a bait or labelling near it, and not all partners need be listed. Where a sequence is shown, tags or fusion partners need not be part of it.
